# PubChem BioAssay AID504467 (National Center for Advancing Translational Sciences (NCATS), 2011)
# Out of some 330,000 compounds screened, about 7,700 (2.3%) were called active. The shares of active, inactive and inconclusive entries below differ from those in the screen. Calls come from the whole dose curve; as a rule, active = well fitted inhibition curve with a large enough effect; inconclusive = small, poorly fitted or top-dose-only effect, or effect the other way; inactive = flat fitted curve, though single readings scatter. Where the call is inconclusive, the potency comes from a doubtful curve fit.
# Test: qHTS screen for small molecules that inhibit ELG1-dependent DNA repair in human embryonic kidney (HEK293T) cells expressing luciferase-tagged ELG1; note: nearly all actives have a fitted effect of over 55% in size
# Details: HEK293T ELG1-luciferase reporter, luminescence, 16 h, DNA damage induced by 5-fluorouridine; series mostly up to 46.1 µM
# Summary of the method: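 Step one: seed 2,000 cells per well. Step two: pin-transfer compound or DMSO alongside 5-fluorouridine. Step three: incubate 16 hr, 37 °C, 5% CO2. Step four: add ONE-Glo, wait 30 min, read luminescence.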
# Potency is the fitted concentration of half-maximal effect.
row,SMILES,Potency
1,CCc1nc(SCC(=O)Nc2ccc3c(c2)OCCO3)c2oc3ccccc3c2n1,inactive
2,CCCc1cc(=O)[nH]c(SCC(=O)N2N=C(c3ccc(Cl)cc3)CC2c2ccco2)n1 (centres undefined),inactive
3,O=C(Cn1nnc2ccccc2c1=O)N[C@@H](Cc1ccccc1)C(=O)O,inactive
4,CCCCc1ccc(NC(=O)COc2ccc(C(=O)Nc3ccccc3OC)cc2)cc1,"inconclusive: 29.1 µM [activator, partial curve, poor fit]"
5,C=CCn1c(-c2sc3nc(C)cc(C)c3c2N)n[nH]c1=S,"inconclusive: 8.2 µM [activator, partial curve, poor fit]"
6,COC(=O)c1ccccc1NC(=O)NCCc1ccc(OC)c(OC)c1,"inconclusive: 29.1 µM [inhibitor, single point]"
7,COc1ccc2c(c1)C(c1ccc(C)o1)=NNC(c1ccccc1)=N2,"inconclusive: 18.3 µM [inhibitor, partial curve, poor fit]"
8,CCCCCCOc1ccc(C(CC(=O)O)C(N)=O)cc1 (centres undefined),"inconclusive: 18.4 µM [activator, partial curve, poor fit]"
9,O=C(COC(=O)CNC(=O)C1CCCCC1)NCc1ccc(Cl)cc1,"inconclusive: 18.3 µM [activator, partial curve, poor fit]"
10,O=C(Nc1nccs1)c1cccc(NC(=O)C2CC2)c1,inactive
11,CCOc1ccc(-c2n[nH]c(C)c2-c2ccccc2OC)c(O)c1,"inconclusive: 23.1 µM [inhibitor, single point]"
12,COCCNC(=S)NN=C1CCCCC1,inactive
13,O=c1oc2ccccc2cc1-c1csc(Cc2nc(-c3ccc(Cl)cc3)cs2)n1,"inconclusive: 7.31 µM [inhibitor, single point]"
14,CC(C)c1ccc(CNNC(=O)c2ccccc2)cc1,"inconclusive: 14.6 µM [activator, partial curve]"
15,O=C(NCCC1CCCCN1S(=O)(=O)c1ccc(Cl)cc1)C(=O)NCc1ccco1 (centres undefined),"inconclusive: 29.1 µM [inhibitor, single point]"
16,Cc1cccc(NC(=S)NNC(=O)Cc2ccccc2)c1,inactive
17,Cc1ccc(OCC(=O)NNC(=S)NC(=O)C(C)(C)C)c(Br)c1,inactive
18,CC1(C)CC(=O)C(C=NCc2ccccn2)=C(O)C1,"inconclusive: 25.9 µM [activator, partial curve, poor fit]"
19,COc1ccc(-c2c(NC(=O)c3ccco3)n(-c3ccc(C)cc3)nc(C)c2=O)cc1,"inconclusive: 32.6 µM [inhibitor, single point]"
20,Cc1ccc2nc(NC(=S)NC(=O)c3ccco3)sc2c1,"inconclusive: 5.8 µM [activator, partial curve]"
21,Cc1c(Cl)c([N+](=O)[O-])nn1CC(=O)N1CCCc2ccccc21,"inconclusive: 29.1 µM [activator, single point]"
22,Cc1nc(SCC(=O)N2CCOCC2)c2c(=O)n(C)c(=O)n(CC(C)C)c2n1,"inconclusive: 29.1 µM [inhibitor, single point]"
23,Cn1c(=O)c(C(=O)COC(=O)c2cc(-c3ccccc3)nc3ccccc23)c(N)n(Cc2ccccc2)c1=O,"inconclusive: 4.11 µM [inhibitor, full curve, poor fit]"

# In the list so far, 2 contain a COOH group.
row,SMILES,Potency
3,O=C(Cn1nnc2ccccc2c1=O)N[C@@H](Cc1ccccc1)C(=O)O,inactive
8,CCCCCCOc1ccc(C(CC(=O)O)C(N)=O)cc1 (centres undefined),"inconclusive: 18.4 µM [activator, partial curve, poor fit]"

# (list continues)

row,SMILES,Potency
1,NS(=O)(=O)c1ccc(CNC(=O)c2ccc(S(=O)(=O)NCc3ccco3)cc2)cc1,inactive
2,Cn1cc([N+](=O)[O-])c(C(=O)Nc2ccc(-c3nc4ccccc4[nH]3)cc2)n1,"inconclusive: 6.51 µM [activator, partial curve]"
3,O=C(Nc1cccc(NC(=O)c2c(F)cccc2F)n1)c1c(F)cccc1F,"inconclusive: 16.4 µM [activator, partial curve, poor fit]"
4,CC(C)CCn1c(O)c(N=Nc2ccccn2)c2ccccc21,"inconclusive: 16.4 µM [inhibitor, partial curve, poor fit]"
5,COC(=O)c1[nH]c2ccccc2c1CN1CCOCC1,"inconclusive: 1.58 µM [inhibitor, partial curve]"
6,CCCC1C(=O)N2C(N(C)C)=Nc3ccc(C)cc3N2C1=O (centres undefined),"inconclusive: 17.8 µM [activator, partial curve, poor fit]"
7,COc1ccccc1NC(c1cccnc1)c1ccc2cccnc2c1O (centres undefined),"inconclusive: 18.4 µM [activator, single point]"
8,O=C(N/N=C/c1ccco1)c1ccncc1,inactive
9,COc1ccc(NC(=O)CCOc2ccc(C)cc2)c(OC)c1,inactive
10,CN1C2=CC=CC=CC2=[N+](C)C12C=CC(=[N+]([O-])[O-])C=C2[N+](=O)[O-] (centres undefined),inactive
11,COc1ccc(OC)c(/C=C/C(=O)Nc2cccc(S(=O)(=O)N3CCCC3)c2)c1,"inconclusive: 18.3 µM [inhibitor, single point]"
12,Cc1nc(SCC(=O)Nc2ccc(S(=O)(=O)N3CCOCC3)cc2)c2c(C)c(C)sc2n1,active: 16.4 µM
13,CC(C)(C)CN1CCC(Oc2cccc(C(=O)NCCCOc3cccnc3)c2)CC1,inactive
14,CN(CCOc1ccccc1)C(=O)CCc1nc2sc3c(c2c(=O)[nH]1)CCCC3,inactive
15,O=C(Cc1ccc(Cl)cc1)NC(=S)Nc1ccccc1N1CCOCC1,"inconclusive: 32.6 µM [inhibitor, single point]"
16,CC1(C)CC(c2nc(-c3ccccc3)cs2)CCS1 (centres undefined),"inconclusive: 20.6 µM [activator, single point]"
17,CC(C)n1c(C(F)(F)F)nc2cc(C(=O)N3CCOCC3)ccc21,"inconclusive: 29.1 µM [activator, partial curve, poor fit]"
18,Nc1cc(S(=O)(=O)N2CCOCC2)ccc1N1CCCCC1,inactive
19,CCOC(=O)N1CCN(c2nc3ccc(C(=O)c4ccccc4)cc3n3cnnc23)CC1,"inconclusive: 20.6 µM [inhibitor, single point]"
20,CCOCCc1nnc(N)s1,inactive
21,COc1ccc(COC(=O)c2ccc(Br)c(S(=O)(=O)N3CCOCC3)c2)cc1F,"inconclusive: 23.1 µM [inhibitor, single point]"
22,Cc1nc2c3ccccc3n(Cc3ccccc3F)c2s1,"inconclusive: 18.4 µM [activator, partial curve, poor fit]"
23,Cc1cc(C)n2nc(SC(C)C(=O)N3CC(C)OC(C)C3)nc2n1 (centres undefined),inactive

# Grouped by structure, the compounds so far with a furan ring, fused or not
row,SMILES,Potency
1,CCc1nc(SCC(=O)Nc2ccc3c(c2)OCCO3)c2oc3ccccc3c2n1,inactive
2,CCCc1cc(=O)[nH]c(SCC(=O)N2N=C(c3ccc(Cl)cc3)CC2c2ccco2)n1 (centres undefined),inactive
7,COc1ccc2c(c1)C(c1ccc(C)o1)=NNC(c1ccccc1)=N2,"inconclusive: 18.3 µM [inhibitor, partial curve, poor fit]"
15,O=C(NCCC1CCCCN1S(=O)(=O)c1ccc(Cl)cc1)C(=O)NCc1ccco1 (centres undefined),"inconclusive: 29.1 µM [inhibitor, single point]"
19,COc1ccc(-c2c(NC(=O)c3ccco3)n(-c3ccc(C)cc3)nc(C)c2=O)cc1,"inconclusive: 32.6 µM [inhibitor, single point]"
20,Cc1ccc2nc(NC(=S)NC(=O)c3ccco3)sc2c1,"inconclusive: 5.8 µM [activator, partial curve]"
1,NS(=O)(=O)c1ccc(CNC(=O)c2ccc(S(=O)(=O)NCc3ccco3)cc2)cc1,inactive
8,O=C(N/N=C/c1ccco1)c1ccncc1,inactive

# More records.

row,SMILES,Potency
1,O=C(Nc1cc2c(cc1Cl)OCCCO2)c1ccccc1,"inconclusive: 16.4 µM [activator, partial curve]"
2,O=C(c1ccc(Br)cc1)C1CCc2occc2C1=O (centres undefined),"inconclusive: 18.4 µM [activator, partial curve, poor fit]"
3,CCn1cc(C(=O)N2CCc3ccccc32)c(=O)c2cc(S(=O)(=O)N3CC(C)CC(C)C3)ccc21 (centres undefined),"inconclusive: 11.6 µM [inhibitor, partial curve]"
4,COc1ccc(-c2csc(NC(=O)c3ccc(S(=O)(=O)N4CCc5ccccc5C4)cc3)n2)c(OC)c1,"inconclusive: 2.91 µM [inhibitor, partial curve, poor fit]"
5,O=C(CCn1c(=O)[nH]c2ccccc2c1=O)N1CCN(c2cccc(C(F)(F)F)c2)CC1,"inconclusive: 10.3 µM [inhibitor, partial curve, poor fit]"
6,O=C1/C(=C/c2cccs2)COc2ccccc21,"inconclusive: 16.4 µM [activator, partial curve]"
7,COc1ccc(NC(=O)c2cccc(S(=O)(=O)N3CCCCC3)c2)c(OC)c1,"inconclusive: 23.1 µM [inhibitor, partial curve, poor fit]"
8,CCOC(=O)C(C(=O)OCC)c1cc(Br)c2noc3c2c1C(=O)c1ccccc1-3,"inconclusive: 25.9 µM [inhibitor, single point]"
9,CNC(=O)CSCc1c(Cl)cccc1Cl,inactive
10,O=C(CCCSc1ccccc1)Nc1nc(-c2ccccn2)cs1,"inconclusive: 16.4 µM [inhibitor, partial curve]"
11,CC(C)NS(=O)(=O)c1ccc(OCC(=O)NCC2CCCO2)c(Cl)c1 (centres undefined),inactive
12,COc1cc(CNCC2CCCO2)ccc1OCC(N)=O (centres undefined),inactive
13,COc1ccc(CN2CCN(C(=O)c3ccc(S(=O)(=O)N4CCCCCC4)cc3)CC2)cc1,active: 10.3 µM
14,COc1ccc(C2CC(c3ccccc3)=NN2C(=O)COC(=O)c2cnc(Cl)c(Cl)c2)cc1 (centres undefined),"inconclusive: 0.231 µM [inhibitor, single point]"
15,COc1ccc(O)c(/C=C(\C#N)C(=O)Nc2cccnc2)c1,"inconclusive: 20.6 µM [activator, partial curve]"
16,Cc1ccc(CC(=O)NC(C)CCc2ccccc2)cc1 (centres undefined),"inconclusive: 32.6 µM [inhibitor, single point]"
17,Cc1[nH]c2ccc(C(=O)NCc3ccccn3)cc2c1C,"inconclusive: 16.4 µM [activator, partial curve]"
18,C=COC(=O)CSc1nc(-c2cccs2)ccc1C#N,"inconclusive: 10.3 µM [activator, partial curve]"
19,CC(=O)c1ccc(N2C(=O)[C@@H]3[C@H](C2=O)[C@H]2c4ccccc4C=NN2[C@@H]3C(C)=O)cc1,inactive
20,CCc1nnc(NC(=O)CSc2ncc(-c3ccccc3)n2C)s1,"inconclusive: 6.51 µM [activator, single point]"
21,COc1cccc(NC(=O)Nc2nc(-c3ccc(OC)c(OC)c3)cs2)c1,active: 4.11 µM
22,O=C(CSc1cccc(C(F)(F)F)c1)N1CCN(S(=O)(=O)c2ccccc2)CC1,"inconclusive: 23.1 µM [inhibitor, partial curve]"
23,CC(C)C[C@H](N)c1nnc(S(=O)(=O)Cc2cccc(F)c2)o1,inactive
